Assay results from patent US9867372B2, “Tetrazolinone compound and use of same” (SUMITOMO CHEMICAL COMPANY, LIMITED, priority 2013, dated 2018).
Some results were stated once for a whole list of compounds, not compound by compound.

Columns and labels:
[1] = test system: kidney bean stem rot fungus (Sclerotinia sclerotiorum); experiment: kidney bean stem rot control test, foliar spray before inoculation
[2] = test system: barley scald fungus (Rhynchosporium secalis); experiment: barley scald control test, foliar spray before inoculation; format: in vivo; settings: 200 ppm, sprayed 2 days before inoculation (Test Example 16)
[3] = test system: wheat leaf blotch fungus (Septoria tritici); experiment: wheat leaf blotch control test, foliar spray 4 days before inoculation; format: in vivo
[4] = test system: wheat leaf blotch fungus (Septoria tritici); experiment: wheat leaf blotch control test, foliar spray after inoculation; format: in vivo; settings: 200 ppm, sprayed 3 days after inoculation (Test Example 13)
[5] = test system: barley net blotch fungus (Pyrenophora teres); experiment: barley net blotch control test, foliar spray before inoculation; format: in vivo; settings: 500 ppm, sprayed 2 days before inoculation (Test Example 7)
[6] = test system: cucumber anthracnose fungus (Colletotrichum lagenarium); experiment: cucumber anthracnose control test, foliar spray before inoculation; format: in vivo; settings: 200 ppm, sprayed one day before inoculation (Test Example 19)
[7] = 500 ppm, kidney bean (Test Example 9)
[8] = 200 ppm, sprayed 4 days before inoculation (Test Example 12)
[9] = 500 ppm, sprayed 4 days before inoculation (Test Example 11)
[10] = 200 ppm, kidney bean (Test Example 10)

Cc1cccc(-n2nnn(C)c2=O)c1COc1ccnc(-c2cccc(Cl)c2)n1 [compound 97]
area of lesion spots on the treated plant relative to that on an untreated plant [1, 7]: ≤ 30% | area of lesion spots on the treated plant relative to that on an untreated plant [2]: ≤ 30%

Cc1cccc(-n2nnn(C)c2=O)c1COc1nccc(-c2ccccc2)n1 [compound 99]
area of lesion spots on the treated plant relative to that on an untreated plant [3, 8]: ≤ 30% | area of lesion spots on the treated plant relative to that on an untreated plant [1, 7]: ≤ 30%

COc1ccccc1-c1ccnc(OCc2c(C)cccc2-n2nnn(C)c2=O)n1 [compound 101]
area of lesion spots on the treated plant relative to that on an untreated plant [4]: ≤ 30% | area of lesion spots on the treated plant relative to that on an untreated plant [1, 7]: ≤ 30%

Cc1cccc(-n2nnn(C)c2=O)c1COc1cccc(-c2ccc(S(C)(=O)=O)cc2)n1 [compound 107]
area of lesion spots on the treated plant relative to that on an untreated plant [5]: ≤ 30% | area of lesion spots on the treated plant relative to that on an untreated plant [2]: ≤ 30%

Cc1cccc(-n2nnn(C)c2=O)c1COc1cccc(-c2ccccc2)c1F [compound 110]
area of lesion spots on the treated plant relative to that on an untreated plant [5]: ≤ 30% | area of lesion spots on the treated plant relative to that on an untreated plant [2]: ≤ 30%

Cc1cccc(-n2nnn(C)c2=O)c1COc1cccc(-c2ccc(Cl)cc2)c1F [compound 112]
area of lesion spots on the treated plant relative to that on an untreated plant [4]: ≤ 30% | area of lesion spots on the treated plant relative to that on an untreated plant [6]: ≤ 30% | area of lesion spots on the treated plant relative to that on an untreated plant [5]: ≤ 30% | area of lesion spots on the treated plant relative to that on an untreated plant [2]: ≤ 30%

Cc1cccc(-n2nnn(C)c2=O)c1COc1cccc(-c2ccc(F)cc2)c1F [compound 114]
area of lesion spots on the treated plant relative to that on an untreated plant [3, 8]: ≤ 30% | area of lesion spots on the treated plant relative to that on an untreated plant [5]: ≤ 30% | area of lesion spots on the treated plant relative to that on an untreated plant [2]: ≤ 30%

Cc1cccc(-n2nnn(C)c2=O)c1COc1cc(-c2ccc(F)cc2)ccc1F [compound 124]
area of lesion spots on the treated plant relative to that on an untreated plant [4]: ≤ 30% | area of lesion spots on the treated plant relative to that on an untreated plant [3, 9]: ≤ 30% | area of lesion spots on the treated plant relative to that on an untreated plant [6]: ≤ 30% | area of lesion spots on the treated plant relative to that on an untreated plant [5]: ≤ 30% | area of lesion spots on the treated plant relative to that on an untreated plant [2]: ≤ 30%

COc1cccc(-c2ccc(F)c(OCc3c(C)cccc3-n3nnn(C)c3=O)c2)c1 [compound 125]
area of lesion spots on the treated plant relative to that on an untreated plant [1, 7]: ≤ 30%

Cc1cccc(-n2nnn(C)c2=O)c1COc1cc(-c2ccccc2)ccc1F [compound 126]
area of lesion spots on the treated plant relative to that on an untreated plant [4]: ≤ 30% | area of lesion spots on the treated plant relative to that on an untreated plant [1, 7]: ≤ 30% | area of lesion spots on the treated plant relative to that on an untreated plant [2]: ≤ 30%

Cc1cccc(-n2nnn(C)c2=O)c1COc1cc(-c2ccc(Cl)cc2)ccc1Cl [compound 129]
area of lesion spots on the treated plant relative to that on an untreated plant [6]: ≤ 30% | area of lesion spots on the treated plant relative to that on an untreated plant [5]: ≤ 30%

COc1ccc(-c2ccc(F)c(OCc3c(C)cccc3-n3nnn(C)c3=O)c2)cc1 [compound 131]
area of lesion spots on the treated plant relative to that on an untreated plant [4]: ≤ 30% | area of lesion spots on the treated plant relative to that on an untreated plant [3, 9]: ≤ 30% | area of lesion spots on the treated plant relative to that on an untreated plant [6]: ≤ 30% | area of lesion spots on the treated plant relative to that on an untreated plant [5]: ≤ 30% | area of lesion spots on the treated plant relative to that on an untreated plant [2]: ≤ 30%

COc1cccc(-c2cc(OCc3c(C)cccc3-n3nnn(C)c3=O)ccc2OC)c1 [compound 138]
area of lesion spots on the treated plant relative to that on an untreated plant [3, 8]: ≤ 30% | area of lesion spots on the treated plant relative to that on an untreated plant [1, 10]: ≤ 30%

COc1ccc(-c2cc(OCc3c(C)cccc3-n3nnn(C)c3=O)ccc2OC)cn1 [compound 139]
area of lesion spots on the treated plant relative to that on an untreated plant [4]: ≤ 30% | area of lesion spots on the treated plant relative to that on an untreated plant [3, 9]: ≤ 30% | area of lesion spots on the treated plant relative to that on an untreated plant [1, 10]: ≤ 30%

Cc1cc(OCc2c(C)cccc2-n2nnn(C)c2=O)cc(-c2ccc(F)cc2)c1 [compound 147]
area of lesion spots on the treated plant relative to that on an untreated plant [6]: ≤ 30% | area of lesion spots on the treated plant relative to that on an untreated plant [5]: ≤ 30%

Cc1cccc(-n2nnn(C)c2=O)c1COc1cccc(N2CCN(C)CC2)n1 [compound 160, 1-methyl-4-{3-methyl-2-[2-(4-methylpiperazin-1-yl)-pyridin-6-yloxymethyl]phenyl}-1,4-dihydrotetrazol-5-one]
area of lesion spots on the treated plant relative to that on an untreated plant [1, 7]: ≤ 30%

Cc1cccc(-n2nnn(C)c2=O)c1COc1cccc(N2CCCCC2)n1 [compound 162, 1-methyl-4-[3-methyl-2-(2-piperidin-1-yl-pyridin-6-yloxymethyl)-phenyl]-1,4-dihydrotetrazol-5-one]
area of lesion spots on the treated plant relative to that on an untreated plant [3, 9]: ≤ 30% | area of lesion spots on the treated plant relative to that on an untreated plant [1, 7]: ≤ 30%

Cc1cccc(-n2nnn(C)c2=O)c1COc1cccc(-c2ccsc2)c1 [compound 168]
area of lesion spots on the treated plant relative to that on an untreated plant [3, 8]: ≤ 30% | area of lesion spots on the treated plant relative to that on an untreated plant [1, 10]: ≤ 30%

COc1ncccc1-c1cccc(OCc2c(C)cccc2-n2nnn(C)c2=O)n1 [compound 171]
area of lesion spots on the treated plant relative to that on an untreated plant [1, 10]: ≤ 30%
